PubChem BioAssay AID504764 – Drosophila RNAi Screening Center | 2011
In all, the deposit lists about 22,000 reagents; shown is a random part of those with a known target gene and a result. Of all reagents, 403 (1.9%) are marked active. 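Unnormalised raw counts per well; ratio z-scores behind the hit calls and whether each hit raises or lowers signal are not deposited.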 Entries without a mark were called inactive. Reagents against one gene are numbered here. Reagent sequences are not shown. Not stated in the record: the amount of reagent.

Screen: 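Genome-wide screen for regulators of Notch-driven gene expression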 (primary screen)
Cells: Drosophila Kc167 cells
Reagent: long dsRNA against Drosophila genes
Timing: about 5 days (4 days dsRNA, then 24 h after transfection)
Conditions: transfection of constitutively active membrane-tethered Notch lacking the extracellular domain, read 24 h later
Measured: 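Firefly luciferase from an E(spl)m3 reporter with active Notch, plus control-promoter and uninduced reporter wells for normalisation; unnormalised counts, duplicate wells a and b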
Direction: induced reporter light, run 1, well a and induced reporter light, run 1, well b: higher = more light from the Notch target reporter with active Notch; control promoter light, run 1, well a and control promoter light, run 1, well b: higher = more light from the viral control promoter (cell number, transfection, viability); uninduced reporter light, run 1, well a: higher = more light from the Notch target reporter without active Notch
Hit rule: 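Wells with low control signal or poorly matching duplicates excluded; duplicates averaged; per source plate, z beyond ±2 for induced/control log2 ratio or beyond ±1.8 for induced/uninduced marks a hit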
Meaning of the calls: active = modifier hit (raised or lowered Notch signal); inactive = not a hit

CG10839 (GeneID 34944) — induced reporter light, run 1, well a = 1.36e5; induced reporter light, run 1, well b = 1.49e5; control promoter light, run 1, well a = 1.38e5; control promoter light, run 1, well b = 1.53e5; uninduced reporter light, run 1, well a = 11380
CG14431 (GeneID 31639) — induced reporter light, run 1, well a = 1.25e5; induced reporter light, run 1, well b = 1.23e5; control promoter light, run 1, well a = 2.31e5; control promoter light, run 1, well b = 2.11e5; uninduced reporter light, run 1, well a = 8500
GILT1 (GeneID 41650) — induced reporter light, run 1, well a = 1.58e5; induced reporter light, run 1, well b = 1.41e5; control promoter light, run 1, well a = 1.15e5; control promoter light, run 1, well b = 95220; uninduced reporter light, run 1, well a = 9210
CG33263 (GeneID 2768952) — induced reporter light, run 1, well a = 1.23e5; induced reporter light, run 1, well b = 1.08e5; control promoter light, run 1, well a = 1.56e5; control promoter light, run 1, well b = 1.44e5; uninduced reporter light, run 1, well a = 12415
Atx2 (GeneID 41883) — induced reporter light, run 1, well a = 2155; induced reporter light, run 1, well b = 1255; control promoter light, run 1, well a = 2525; control promoter light, run 1, well b = 2355; uninduced reporter light, run 1, well a = 985
Rm62 (GeneID 40739) — induced reporter light, run 1, well a = 81450; induced reporter light, run 1, well b = 78950; control promoter light, run 1, well a = 35930; control promoter light, run 1, well b = 37445; uninduced reporter light, run 1, well a = 8445
CG33919 (GeneID 3772720) — induced reporter light, run 1, well a = 97555; induced reporter light, run 1, well b = 1.03e5; control promoter light, run 1, well a = 1.10e5; control promoter light, run 1, well b = 1.03e5; uninduced reporter light, run 1, well a = 4135
dyl (GeneID 38531) #1 — induced reporter light, run 1, well a = 96035; induced reporter light, run 1, well b = 1.11e5; control promoter light, run 1, well a = 72765; control promoter light, run 1, well b = 37910; uninduced reporter light, run 1, well a = 9955
dyl (GeneID 38531) #2 — induced reporter light, run 1, well a = 65200 (active); induced reporter light, run 1, well b = 1.38e5; control promoter light, run 1, well a = 2.95e5; control promoter light, run 1, well b = 3.19e5; uninduced reporter light, run 1, well a = 7405
Mtr4 (GeneID 48782) — induced reporter light, run 1, well a = 93385; induced reporter light, run 1, well b = 1.13e5; control promoter light, run 1, well a = 82925; control promoter light, run 1, well b = 88235; uninduced reporter light, run 1, well a = 6870
Hsp110 (GeneID 39557) — induced reporter light, run 1, well a = 1.10e5; induced reporter light, run 1, well b = 97215; control promoter light, run 1, well a = 1.06e5; control promoter light, run 1, well b = 1.25e5; uninduced reporter light, run 1, well a = 7910
Asx (GeneID 36612) — induced reporter light, run 1, well a = 14140; induced reporter light, run 1, well b = 13345; control promoter light, run 1, well a = 17060; control promoter light, run 1, well b = 13870; uninduced reporter light, run 1, well a = 3190

Only “uninduced reporter light, run 1, well a”, for 2 of the entries above:
CG10839 (GeneID 34944) = 11380
CG14431 (GeneID 31639) = 8500
